For 21 compounds, T/C and survivor count results are on record in PubChem BioAssay AID248 (DTP/NCI, 2004).

The list is a part of this screen's results and no random one: it gathers tests that were run many times, whatever their T/C, doses with no T/C, and many T/C values between a quarter and a half above the control. Other doses and runs of a compound stand elsewhere. T/C gives the treated animals as a percentage of the vehicle group. Some doses have a count of surviving animals in place of a T/C: the source files T/C as zero there, which appears to mark a toxic dose or a test without result, not a measured value. Some doses without a T/C left all or most animals alive at the check, yet need not have been tolerated: the source hardly ever lists a survival T/C far under the control, and the zero likely stands for such cases as well. Survivors were counted at the toxicity check, usually on the fifth day, unless a day is given; later deaths do not show. Schedules are NCI's codes, taken here to give the interval after Q, in days (D) or hours (H), and the number of doses after X. Where survival is the endpoint, this PubChem deposit counts one and a half times the control or more as active, and values a quarter to a half above the control carry no call in these data; other NCI protocols may use other cut-offs. Some entries were tested several times; the values are given in rising order. Some schedule codes hold Z or #, which are not explained here. Some T/C values are followed by the survivors on the day toxicity was checked, most often the fifth; without a count, all were alive then.

For this assay, the system named is L1210 leukemia ip in BDF1 mice, survival T/C. Briefly: NCI In Vivo Anticancer Drug Screen. Data for tumor model L1210 Leukemia (intraperitoneal) in B6D2F1 (BDF1) mice. The conditions noted are these: T/C endpoint: mean survival time, higher T/C = longer survival.
Setting [1] is: dose: 50.0 mg/kg/injection, schedule: Q01DX009 (ip), vehicle: saline.
Where [2] appears, read: dose: 200.0 mg/kg/injection, schedule: Q01DX009 (ip), vehicle: Klucel (hydroxypropylcellulose) (HPC).
Setting [3] is: dose: 200.0 mg/kg/injection, schedule: Q04DX002 (ip), vehicle: saline.
The mark [4] stands for this setting: dose: 400.0 mg/kg/injection, schedule: Q04DX002 (ip), vehicle: saline.
The mark [5] stands for this setting: dose: 200.0 mg/kg/injection, schedule: Q04DX003 (ip), vehicle: Klucel (hydroxypropylcellulose) (HPC).
The mark [6] stands for this setting: dose: 400.0 mg/kg/injection, schedule: Q04DX003 (ip), vehicle: Klucel (hydroxypropylcellulose) (HPC).
Setting [7] is: dose: 100.0 mg/kg/injection, schedule: Q01DX009 (ip), vehicle: Klucel (hydroxypropylcellulose) (HPC).
The mark [8] stands for this setting: dose: 400.0 mg/kg/injection, schedule: Q01DX001 (ip), vehicle: carboxymethylcellulose (CMC).

Regarding `Nc1nc(=S)c2ncn(CN3CCCCC3)c2[nH]1`, the T/C was 140 % of control (dose: 1.3 mg/kg/injection, schedule: Q01DX Z (ip), vehicle: carboxymethylcellulose (CMC)); 146 % of control (dose: 2.0 mg/kg/injection, schedule: Q01DX Z (ip), vehicle: carboxymethylcellulose (CMC)); 145 % of control [5 of 6 alive] (dose: 3.0 mg/kg/injection, schedule: Q01DX Z (ip), vehicle: carboxymethylcellulose (CMC)); 137 % of control (dose: 4.5 mg/kg/injection, schedule: Q01DX Z (ip), vehicle: carboxymethylcellulose (CMC)).
On to `O=C(Cn1ccccc1=O)c1ccccc1`, for which, under “dose: 200.0 mg/kg/injection, schedule: Q04DX003 (ip), vehicle: saline with Tween-80”, the survivor count is 0 of 6.
Consider `OC(CF)CF`, for which the T/C under setting [1] was 141 % of control [5 of 6 alive]. Besides, the survivor count is reported as 1 of 6 (dose: 100.0 mg/kg/injection, schedule: Q01DX009 (ip), vehicle: saline); 0 of 6 (dose: 200.0 mg/kg/injection, schedule: Q01DX009 (ip), vehicle: saline); 0 of 6 (dose: 400.0 mg/kg/injection, schedule: Q01DX009 (ip), vehicle: saline).
For `Cc1ccc(S(=O)(=O)O)cc1.[Ag]`, the survivor count is, setting by setting: (dose: 100.0 mg/kg/injection, schedule: Q04DX002 (ip), vehicle: saline + alcohol) 2 of 3; (dose: 100.0 mg/kg/injection, schedule: Q04DX002 (ip), vehicle: saline with Tween-80) 1 of 3; (dose: 200.0 mg/kg/injection, schedule: Q04DX002 (ip), vehicle: saline with Tween-80) 0 of 3; (dose: 400.0 mg/kg/injection, schedule: Q04DX002 (ip), vehicle: saline with Tween-80) 0 of 3.
Take `O=C1NC2(C(=O)O1)C1CC3CC(C1)CC2C3` (stereo not given): the survivor count reads like this: (dose: 100.0 mg/kg/injection, schedule: Q01DX009 (ip), vehicle: alcohol) 3 of 6; (dose: 200.0 mg/kg/injection, schedule: Q01DX009 (ip), vehicle: alcohol) 1 of 6; (dose: 400.0 mg/kg/injection, schedule: Q01DX009 (ip), vehicle: alcohol) 1 of 6.
For the compound `Cc1ccnc(NC(C#N)c2ccccc2)c1` (stereo not given), the survivor count runs as follows: (dose: 100.0 mg/kg/injection, schedule: Q01DX009 (ip), vehicle: saline with Tween-80) 0 of 3; (dose: 200.0 mg/kg/injection, schedule: Q01DX009 (ip), vehicle: saline with Tween-80) 0 of 3.
`O=C(Nc1ccc(C(=O)O)cc1)Nc1ccccc1F`: under setting [2], the survivor count is 3 of 3.
In the case of `O=C1NCCc2cc3c(cc21)OCO3`, the survivor count was 3 of 3 under setting [3] and 2 of 3 under setting [4].
On to `O=C(O)c1ccccc1NC(=O)C(F)(F)F`, for which the survivor count is, setting by setting: under setting [5], 3 of 6; under setting [6], 0 of 6.
With `N#Cc1cn(C2OC(CO)C(O)C2O)c2ncnc(NC(=O)c3ccccc3)c12` (stereo not given), the survivor count is given as 0 of 4 (dose: 25.0 mg/kg/injection, schedule: Q01DX009 (ip), vehicle: other); 0 of 4 (dose: 50.0 mg/kg/injection, schedule: Q01DX009 (ip), vehicle: other); 0 of 4 (dose: 100.0 mg/kg/injection, schedule: Q01DX009 (ip), vehicle: other); 0 of 4 (dose: 200.0 mg/kg/injection, schedule: Q01DX009 (ip), vehicle: other); 0 of 4 (dose: 400.0 mg/kg/injection, schedule: Q01DX009 (ip), vehicle: other).
In the case of `Nc1ncnc(N)c1NC(=O)CCCc1ccccc1`, the survivor count under setting [6] was 6 of 6.
For `CSC(=S)NNC(=O)c1cccc([N+](=O)[O-])c1`, the survivor count is on record as 0 of 6 (dose: 100.0 mg/kg/injection, schedule: Q04DX003 (ip), vehicle: Klucel (hydroxypropylcellulose) (HPC)); 0 of 6 under setting [5]; 0 of 6 under setting [6].
As to `O=C(O)C1CCC2CCCCC2[N-]1.O=C(O)C1CCC2CCCCC2[N-]1.[Zn+2]` (stereo not given), the survivor count by setting is: under setting [7], 6 of 6; under setting [2], 6 of 6; (dose: 400.0 mg/kg/injection, schedule: Q01DX009 (ip), vehicle: Klucel (hydroxypropylcellulose) (HPC)) 6 of 6.
For `CC[Si](C)(C)N1CC1`, the survivor count was 6 of 6 (dose: 50.0 mg/kg/injection, schedule: Q01DX001 (ip), vehicle: carboxymethylcellulose (CMC)); 0 of 4 (dose: 100.0 mg/kg/injection, schedule: Q01DX001 (ip), vehicle: carboxymethylcellulose (CMC)); 0 of 4 (dose: 200.0 mg/kg/injection, schedule: Q01DX001 (ip), vehicle: carboxymethylcellulose (CMC)); 0 of 4 under setting [8].
In the case of `CCCC(Cc1ccccc1)N1CCCC1` (stereo not given), the survivor count reads like this: under setting [1], 3 of 6; (dose: 100.0 mg/kg/injection, schedule: Q04DX003 (ip), vehicle: saline) 0 of 4; (dose: 200.0 mg/kg/injection, schedule: Q04DX003 (ip), vehicle: saline) 0 of 4; (dose: 400.0 mg/kg/injection, schedule: Q04DX003 (ip), vehicle: saline) 0 of 4.
On to `Nc1ccc(N(CCCl)CCN(CCCl)c2ccc(N)cc2)cc1`, for which the T/C reads like this: (dose: 3.0 mg/kg/injection, schedule: Q01DX009 (ip), vehicle: saline) 143 % of control; (dose: 4.4 mg/kg/injection, schedule: Q01DX009 (ip), vehicle: carboxymethylcellulose (CMC)) 127 % of control; (dose: 5.0 mg/kg/injection, schedule: Q01DX009 (ip), vehicle: carboxymethylcellulose (CMC)) 135 % of control; (dose: 6.6 mg/kg/injection, schedule: Q01DX001 (ip), vehicle: carboxymethylcellulose (CMC)) 128 % of control; (dose: 6.6 mg/kg/injection, schedule: Q01DX009 (ip), vehicle: carboxymethylcellulose (CMC)) 125 % of control; (dose: 6.6 mg/kg/injection, schedule: Q01DX009 (ip), vehicle: saline) 143 % of control. The T/C (dose: 10.0 mg/kg/injection, schedule: Q01DX001 (ip), vehicle: carboxymethylcellulose (CMC)) was 125 and 141 % of control. For the same compound, the survivor count is recorded as 4 of 6 (dose: 10.0 mg/kg/injection, schedule: Q01DX009 (ip), vehicle: carboxymethylcellulose (CMC)); 2 of 6 (dose: 30.0 mg/kg/injection, schedule: Q01DX001 (ip), vehicle: saline); 0 of 6 (dose: 60.0 mg/kg/injection, schedule: Q01DX001 (ip), vehicle: saline); 0 of 6 (dose: 75.0 mg/kg/injection, schedule: Q01DX001 (ip), vehicle: carboxymethylcellulose (CMC)); 0 of 6 (dose: 120.0 mg/kg/injection, schedule: Q01DX001 (ip), vehicle: saline); 0 of 6 (dose: 150.0 mg/kg/injection, schedule: Q01DX001 (ip), vehicle: carboxymethylcellulose (CMC)). Further, for the setting “dose: 300.0 mg/kg/injection, schedule: Q01DX001 (ip), vehicle: carboxymethylcellulose (CMC)”, the survivor count was 0 of 6.
Regarding `CCCNCCC[P+](c1ccccc1)(c1ccccc1)c1ccccc1`, the survivor count is 0 of 3 under setting [3] and 1 of 3 under setting [4].
With `CSc1ncnc2c1ncn2C1OC(CCC(N)=O)C(O)C1O` (stereo not given), the survivor count (dose: 200.0 mg/kg/injection, schedule: Q04DX002 (ip), vehicle: Klucel (hydroxypropylcellulose) (HPC)) is recorded as 3 of 3.
For the compound `c1ccc(C2(NC3=NCCO3)CCCCC2)cc1`, the survivor count is 0 of 6 (dose: 150.0 mg/kg/injection, schedule: Q01DX009 (ip), vehicle: Klucel (hydroxypropylcellulose) (HPC)) and 0 of 6 (dose: 300.0 mg/kg/injection, schedule: Q01DX009 (ip), vehicle: Klucel (hydroxypropylcellulose) (HPC)).
Take `COc1ccc([N+](=O)[O-])cc1NC(=O)c1ccc(Cl)cc1`: the survivor count is recorded as 6 of 6 under setting [7] and 6 of 6 under setting [2].
As to `Nc1nc(N)nc(CCCCCCc2nc(N)nc(N)n2)n1`, under setting [8], the survivor count is on record as 0 of 4.
